Experimental data: publication PMC4850266
These are yes or no findings as the source states them, for the method shown. Some results given as binding are weak or reduced against the parent protein; the word gives no strength. One block for each molecule: values may come before it.

Amino acid sequences for entries named in this document (tags omitted).
UniProt Q6FMA3: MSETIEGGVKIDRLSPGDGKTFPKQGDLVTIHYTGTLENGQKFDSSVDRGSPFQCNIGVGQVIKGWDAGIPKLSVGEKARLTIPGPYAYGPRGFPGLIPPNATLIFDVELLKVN

Experiments:
[1] = target: C. glabrata FKBP12 (Candida glabrata) (UniProt Q6FMA3); assay: crystal structure; apo C. glabrata FKBP12, 2.65 Å; crystal packing examined; both purified
[2] = target: C. albicans FKBP12 (Candida albicans) (UniProt P28870); assay: crystal structure; apo C. albicans FKBP12, three crystal forms (P1, P2(1)2(1)2, C2) from different conditions, ~10 mg/ml protein; resolutions 1.99, 2.3 and 2.4 Å; intermolecular contact seen in the crystal packing; both purified

binding [1]: no binding
Molecule: C. glabrata FKBP12 (from UniProt Q6FMA3 1-114) (enzyme)

binding [2]: binds weakly
B1: C. albicans FKBP12 (enzyme, UniProt P28870 1-124)
chain: MSEELPQIEIVQEGDNTTFAKPGDTVTIHYDGKLTNGKEFDSSRKRGKPFTCTVGVGQVIKGWDISLTNNYGKGGANLPKISKGTKAILTIPPNLAYGPRGIPPIIGPNETLVFEVELLGVNGQ
